Data source: PubChem BioAssay AID1259308 (NCATS, 2017)
This is one part, drawn at random, of about 59,000 reagents tested. Over the whole deposit, about 1,510 (2.6%) are marked active. 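Calls use total luciferase alone and ignore viability, so some active siRNAs may act by altering cell number.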 The numbers tell different reagents against one gene apart. Not all columns of the deposit are shown.

- Aim: 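Genes whose loss raises luciferase production in HEK293 cells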 (primary screen)
- Cells: human HEK293 embryonic kidney cells stably expressing firefly luciferase (HEK-CMV-Luc2-Hygro)
- Knock-down reagent: single siRNA against human genes, 0.8 pmol siRNA per well
- Time to read-out: 72 h
- Read-out: 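Reporter luminescence and viable-cell signal on separate replicate plates, given as percent of non-targeting control and median/MAD z-scores, plus per-cell luciferase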
- Direction: total luciferase, z-score: higher = more reporter protein produced
- Active means: 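Active when the median/MAD z-score for overall luciferase is greater than 3; a gene was taken forward for validation with new siRNAs if at least two of its three siRNAs passed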
- Meaning of the calls: active = raised luciferase; inactive = no rise

NLRP6 #1 gave total luciferase, z-score -2.34; inactive. NLRP6 #2 gave total luciferase, z-score -0.501; inactive. NLRP6 #3 showed total luciferase, z-score -0.529; inactive. Knock-down of ANXA8L1 #1 gave: total luciferase, z-score -0.0233; inactive. After knock-down of ANXA8L1 #2, the screen gave total luciferase, z-score -2.91; inactive. For ANXA8L1 #3, the values are total luciferase, z-score -0.662; inactive.

After knock-down of ANXA8L1 #4, the record shows total luciferase, z-score -0.301; inactive. ANXA8L1 #5 showed total luciferase, z-score 1.93; inactive. Knock-down of ANXA8L1 #6 came out at: total luciferase, z-score -1.18; inactive. Depletion of SLAIN2 #1 gave: total luciferase, z-score 1.86; inactive. SLAIN2 #2 showed total luciferase, z-score -1.62; inactive. Silencing of SLAIN2 #3 resulted in: total luciferase, z-score 1.57; inactive.

Knock-down of SCAMP1-AS1 #1 gave: total luciferase, z-score 0.457; inactive. Depletion of SCAMP1-AS1 #2 came out at: total luciferase, z-score -0.14; inactive. For SCAMP1-AS1 #3, the values are total luciferase, z-score -0.913; inactive. With knock-down of DMAC1 #1, the record shows total luciferase, z-score -2.33; inactive. For DMAC1 #2, the entry reads total luciferase, z-score -0.029; inactive. Against DMAC1 #3, the entry reads total luciferase, z-score 0.561; inactive.

Depletion of ASIC1 #1 came out at: total luciferase, z-score -0.365; inactive. ASIC1 #2 scored total luciferase, z-score 0.177; inactive. After knock-down of ASIC1 #3, the record shows total luciferase, z-score -0.46; inactive. Depletion of PTPRG #1 gave: total luciferase, z-score -0.344; inactive. After knock-down of PTPRG #2 the results were total luciferase, z-score 0.679; inactive. After knock-down of PTPRG #3, the screen gave total luciferase, z-score -0.104; inactive.

SULT1C2 #1 scored total luciferase, z-score -0.0932; inactive. Depletion of SULT1C2 #2 resulted in: total luciferase, z-score -0.241; inactive. After knock-down of SULT1C2 #3, the record shows total luciferase, z-score 0.39; inactive. After knock-down of AHCYL1 #1 the results were total luciferase, z-score 0.311; inactive. AHCYL1 #2 showed total luciferase, z-score -0.612; inactive. For AHCYL1 #3, the entry reads total luciferase, z-score -0.13; inactive.

For COL20A1 #1, the entry reads total luciferase, z-score 1.11; inactive. COL20A1 #2 showed total luciferase, z-score -0.569; inactive. With knock-down of COL20A1 #3 the results were total luciferase, z-score 0.591; inactive.

Taken from above:
Value for PTPRG #3 under “total luciferase, z-score”: -0.104
COL20A1 #3, outcome: inactive
Result for ANXA8L1 #6 in “outcome”: inactive
Result for DMAC1 #3 under “outcome”: inactive
